Reference: PMC7930092
Read-outs that look alike come from different tables or passages of the source. These are yes or no findings as the source states them, for the method shown. In cells and extracts the contact can be indirect. Some entries that bind do so weakly or less than the wild type. For some of these results: Tags and fused reporters may be left off the sequences shown. One block for each molecule: values may come before it.

Amino acid sequences for entries named in this document (tags omitted).
UniProt J9SQF3: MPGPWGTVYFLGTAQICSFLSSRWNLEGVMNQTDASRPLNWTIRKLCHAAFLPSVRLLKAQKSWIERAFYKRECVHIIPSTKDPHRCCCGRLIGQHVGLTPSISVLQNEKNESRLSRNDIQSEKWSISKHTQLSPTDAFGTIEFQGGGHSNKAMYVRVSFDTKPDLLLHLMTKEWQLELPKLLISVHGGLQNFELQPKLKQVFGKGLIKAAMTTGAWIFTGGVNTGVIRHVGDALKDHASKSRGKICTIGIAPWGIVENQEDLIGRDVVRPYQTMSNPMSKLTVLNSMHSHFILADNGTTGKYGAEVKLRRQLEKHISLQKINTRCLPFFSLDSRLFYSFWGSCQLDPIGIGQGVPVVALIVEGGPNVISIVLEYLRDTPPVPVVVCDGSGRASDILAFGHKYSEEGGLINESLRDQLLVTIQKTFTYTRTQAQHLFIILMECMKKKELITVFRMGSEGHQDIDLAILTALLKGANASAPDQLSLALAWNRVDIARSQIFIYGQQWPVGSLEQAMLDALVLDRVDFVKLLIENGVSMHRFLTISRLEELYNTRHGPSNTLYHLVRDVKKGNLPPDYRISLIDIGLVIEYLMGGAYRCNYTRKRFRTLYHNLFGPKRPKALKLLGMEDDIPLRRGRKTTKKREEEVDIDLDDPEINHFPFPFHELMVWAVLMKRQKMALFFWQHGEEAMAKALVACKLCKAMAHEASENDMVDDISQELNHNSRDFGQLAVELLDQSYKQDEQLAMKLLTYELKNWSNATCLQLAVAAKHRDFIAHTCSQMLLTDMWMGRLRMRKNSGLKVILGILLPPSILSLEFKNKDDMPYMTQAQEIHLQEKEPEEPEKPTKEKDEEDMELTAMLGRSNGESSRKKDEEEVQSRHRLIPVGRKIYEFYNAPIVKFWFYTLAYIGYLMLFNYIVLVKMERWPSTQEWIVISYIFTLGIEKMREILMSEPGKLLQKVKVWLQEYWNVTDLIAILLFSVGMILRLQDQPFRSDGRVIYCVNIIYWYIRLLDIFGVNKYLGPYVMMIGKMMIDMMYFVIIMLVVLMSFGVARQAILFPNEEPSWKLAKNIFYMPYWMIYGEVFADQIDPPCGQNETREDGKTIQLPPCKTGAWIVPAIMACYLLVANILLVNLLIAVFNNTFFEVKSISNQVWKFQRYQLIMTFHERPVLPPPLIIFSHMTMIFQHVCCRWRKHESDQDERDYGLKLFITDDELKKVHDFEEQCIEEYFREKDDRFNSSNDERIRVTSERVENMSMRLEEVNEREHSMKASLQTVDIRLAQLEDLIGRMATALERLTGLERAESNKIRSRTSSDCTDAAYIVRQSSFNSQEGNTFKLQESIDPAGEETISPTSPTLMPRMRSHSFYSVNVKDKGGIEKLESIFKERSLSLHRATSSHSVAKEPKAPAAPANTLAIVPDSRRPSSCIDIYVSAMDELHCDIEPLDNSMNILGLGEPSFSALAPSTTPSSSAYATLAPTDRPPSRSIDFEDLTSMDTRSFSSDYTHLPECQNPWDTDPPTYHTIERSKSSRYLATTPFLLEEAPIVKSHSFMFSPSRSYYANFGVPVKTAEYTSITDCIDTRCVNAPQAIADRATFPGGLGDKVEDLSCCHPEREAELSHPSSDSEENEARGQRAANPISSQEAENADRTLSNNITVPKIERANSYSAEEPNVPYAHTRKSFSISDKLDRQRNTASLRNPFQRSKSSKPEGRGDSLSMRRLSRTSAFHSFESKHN
UniProt Q61768: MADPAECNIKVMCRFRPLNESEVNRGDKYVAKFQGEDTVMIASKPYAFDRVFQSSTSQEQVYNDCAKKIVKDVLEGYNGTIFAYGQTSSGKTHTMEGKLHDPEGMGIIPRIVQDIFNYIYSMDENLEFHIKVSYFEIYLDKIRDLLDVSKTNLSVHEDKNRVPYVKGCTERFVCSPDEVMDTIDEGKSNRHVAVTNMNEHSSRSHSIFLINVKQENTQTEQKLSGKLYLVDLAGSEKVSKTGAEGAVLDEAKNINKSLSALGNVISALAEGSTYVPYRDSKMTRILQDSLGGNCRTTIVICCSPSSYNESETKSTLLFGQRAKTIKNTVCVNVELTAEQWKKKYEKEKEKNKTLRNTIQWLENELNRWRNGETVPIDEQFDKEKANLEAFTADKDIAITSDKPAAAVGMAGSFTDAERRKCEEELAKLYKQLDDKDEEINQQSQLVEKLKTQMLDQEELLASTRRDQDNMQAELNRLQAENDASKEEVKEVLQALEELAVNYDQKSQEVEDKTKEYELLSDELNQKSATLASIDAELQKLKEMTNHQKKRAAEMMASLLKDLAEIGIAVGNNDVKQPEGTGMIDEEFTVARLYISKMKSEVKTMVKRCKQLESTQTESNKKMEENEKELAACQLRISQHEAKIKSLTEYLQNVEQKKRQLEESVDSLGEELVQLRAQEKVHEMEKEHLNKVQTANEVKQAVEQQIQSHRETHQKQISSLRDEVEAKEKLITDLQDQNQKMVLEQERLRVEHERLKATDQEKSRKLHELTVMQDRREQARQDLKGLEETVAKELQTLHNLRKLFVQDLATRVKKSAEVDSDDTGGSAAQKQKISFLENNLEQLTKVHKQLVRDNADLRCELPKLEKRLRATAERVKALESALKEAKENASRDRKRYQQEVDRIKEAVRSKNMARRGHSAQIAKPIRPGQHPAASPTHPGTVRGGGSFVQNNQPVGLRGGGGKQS
UniProt P28741: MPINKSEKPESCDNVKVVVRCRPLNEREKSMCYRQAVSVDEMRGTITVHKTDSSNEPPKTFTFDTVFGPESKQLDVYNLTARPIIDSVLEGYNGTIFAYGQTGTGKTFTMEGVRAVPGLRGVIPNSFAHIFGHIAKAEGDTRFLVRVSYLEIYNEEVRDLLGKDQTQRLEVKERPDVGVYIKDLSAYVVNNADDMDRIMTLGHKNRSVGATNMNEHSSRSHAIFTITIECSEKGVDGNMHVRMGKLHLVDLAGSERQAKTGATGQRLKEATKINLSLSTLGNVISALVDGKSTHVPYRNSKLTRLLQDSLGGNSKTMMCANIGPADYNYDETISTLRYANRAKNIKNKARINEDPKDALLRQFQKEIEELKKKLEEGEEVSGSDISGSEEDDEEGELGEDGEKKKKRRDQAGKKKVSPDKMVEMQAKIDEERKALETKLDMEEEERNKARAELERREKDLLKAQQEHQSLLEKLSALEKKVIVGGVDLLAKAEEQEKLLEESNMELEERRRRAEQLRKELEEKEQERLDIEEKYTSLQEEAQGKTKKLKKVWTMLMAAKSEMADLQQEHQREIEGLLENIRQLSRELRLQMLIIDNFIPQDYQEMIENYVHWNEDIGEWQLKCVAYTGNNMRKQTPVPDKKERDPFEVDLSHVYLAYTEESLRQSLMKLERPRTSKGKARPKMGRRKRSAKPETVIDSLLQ
UniProt P33175: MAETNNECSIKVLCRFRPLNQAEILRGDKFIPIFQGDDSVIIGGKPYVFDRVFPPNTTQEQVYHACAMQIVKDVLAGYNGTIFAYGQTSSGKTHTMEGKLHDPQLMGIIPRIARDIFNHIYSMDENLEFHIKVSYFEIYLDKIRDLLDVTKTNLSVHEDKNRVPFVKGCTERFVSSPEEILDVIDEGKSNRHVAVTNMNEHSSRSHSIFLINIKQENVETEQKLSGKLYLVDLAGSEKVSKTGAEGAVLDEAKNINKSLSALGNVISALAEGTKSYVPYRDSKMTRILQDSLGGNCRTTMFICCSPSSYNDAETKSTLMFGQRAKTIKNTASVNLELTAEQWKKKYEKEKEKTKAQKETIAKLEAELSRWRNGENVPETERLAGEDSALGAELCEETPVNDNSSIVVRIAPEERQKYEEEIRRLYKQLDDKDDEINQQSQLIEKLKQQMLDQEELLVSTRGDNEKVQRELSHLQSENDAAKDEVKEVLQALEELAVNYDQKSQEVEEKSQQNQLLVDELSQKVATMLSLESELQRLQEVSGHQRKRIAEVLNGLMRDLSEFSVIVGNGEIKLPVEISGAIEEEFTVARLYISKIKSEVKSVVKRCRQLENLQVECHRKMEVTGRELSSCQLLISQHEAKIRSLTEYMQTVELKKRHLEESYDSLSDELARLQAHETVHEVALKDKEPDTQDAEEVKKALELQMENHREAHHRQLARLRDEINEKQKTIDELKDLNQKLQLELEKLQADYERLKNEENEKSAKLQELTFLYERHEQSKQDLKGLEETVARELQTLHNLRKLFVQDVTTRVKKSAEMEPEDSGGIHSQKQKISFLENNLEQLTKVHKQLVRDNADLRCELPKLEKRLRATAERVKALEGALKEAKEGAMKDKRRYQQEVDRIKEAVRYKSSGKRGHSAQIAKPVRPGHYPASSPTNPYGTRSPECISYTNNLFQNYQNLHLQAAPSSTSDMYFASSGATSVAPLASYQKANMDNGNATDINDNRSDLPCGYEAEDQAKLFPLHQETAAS

Experiments:
ATF4-His (aa 233-349) = target: T1, ATF4-His (aa 233-349) (UniProt Q06507); test: co-IP; ATF4-His fragments co-expressed with TRPM3-Flag or KIF17-Flag in HEK293T cells; lysates immunoprecipitated with a His antibody, immunoblotted with His or Flag antibody
T1 sequence: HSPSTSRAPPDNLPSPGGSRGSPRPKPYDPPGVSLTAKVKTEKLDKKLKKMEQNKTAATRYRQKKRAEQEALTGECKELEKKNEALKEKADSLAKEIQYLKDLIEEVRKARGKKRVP

[1] = target: T2, activating transcription factor 4 (ATF4), endogenous in mouse DRG (mouse (endogenous in DRG)) (UniProt Q06507); test: co-IP; mouse DRG lysates in co-IP RIPA buffer (20 mM Tris-HCl pH 7.5, 150 mM NaCl, 0.1% Triton X-100, 1% sodium deoxycholate); 5-10 ug ATF4 or TRPM3 antibody at 4 °C overnight, protein A/G beads 4 h; immunoblot; also done after heat stimulation of the hind paws (43 °C, 30 s; 2-40 min) and after intrathecal ATF4 siRNA
T2 sequence: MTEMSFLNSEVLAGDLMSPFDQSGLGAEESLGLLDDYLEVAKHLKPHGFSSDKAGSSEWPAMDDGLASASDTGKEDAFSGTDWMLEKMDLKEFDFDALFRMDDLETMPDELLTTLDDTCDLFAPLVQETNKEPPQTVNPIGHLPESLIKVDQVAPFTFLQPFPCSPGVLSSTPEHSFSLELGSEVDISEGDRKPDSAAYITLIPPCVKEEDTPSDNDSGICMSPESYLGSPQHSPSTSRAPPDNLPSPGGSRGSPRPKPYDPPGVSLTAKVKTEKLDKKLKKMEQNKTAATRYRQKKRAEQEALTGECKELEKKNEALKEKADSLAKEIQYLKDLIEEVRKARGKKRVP

ATF4-His (aa 117-232) = target: T3, ATF4-His (aa 117-232) (UniProt Q06507); test: co-IP; ATF4-His fragments co-expressed with TRPM3-Flag or KIF17-Flag in HEK293T cells; lysates immunoprecipitated with a His antibody, immunoblotted with His or Flag antibody
T3 sequence: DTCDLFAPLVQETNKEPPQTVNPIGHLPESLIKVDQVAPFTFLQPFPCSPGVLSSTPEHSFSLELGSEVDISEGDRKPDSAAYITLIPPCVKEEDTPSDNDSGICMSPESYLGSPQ

[2] = target: T2, activating transcription factor 4 (ATF4), endogenous in mouse DRG (mouse (endogenous in DRG)); test: co-IP; mouse DRG lysates in co-IP RIPA buffer (20 mM Tris-HCl pH 7.5, 150 mM NaCl, 0.1% Triton X-100, 1% sodium deoxycholate); 5-10 ug ATF4 or TRPM3 antibody at 4 °C overnight, protein A/G beads 4 h; immunoblot; also done after heat stimulation of the hind paws (43 °C, 30 s; 2-40 min) and after intrathecal ATF4 siRNA; remark: listed apart in the source
[3] = target: transient receptor potential cation channel subfamily M member-3 (TRPM3), endogenous in mouse DRG (mouse (endogenous in DRG)) (UniProt J9SQF3); test: as above

Molecule: Full-length TRPM3-Flag (from UniProt J9SQF3 1-1732)
- binding (ATF4-His (aa 233-349)): binds

Molecule: KIF5B, endogenous in mouse DRG (from UniProt Q61768 1-963)
- binding [1]: binds weakly

B1: Full-length KIF17-Flag (protein, UniProt Q99PW8 1-1038)
chain: MASESVKVVVRCRPMNKRERELSCQSVVTVDSARGQCFIQNPGAADEPPKQFTFDGAYYIEHFTEQIYNEIAYPLVEGVTEGYNGTIFAYGQTGSGKSFTMQGLPDPPCQRGIIPRAFEHVFESVQCAENTKFLVRASYLEIYNEDVHDLLGADTKQRLELKEHPEKGVYVKGLSMHTVHNVAQCERVMETGWKNRAVGYTLMNKDSSRSHSIFTINIEIYAVDERGKDHLRAGKLNLVDLAGSERQSKTGATGERLKEATKINLSLSALGNVISALVDGRCKHIPYRDSKLTRLLQDSLGGNTKTLMVACLSPADNNYDETLSTLRYANRAKNIKNKPRINEDPKDALLREYQEEIKRLKAILAQQMGPGNLSALLSTQTPPGPVQSEEKLLSPTTVQQDTEAEKQLIREEYEERLARLKADYEAEQESRVRLQEDITAMRNSYDVKLSTLQENLRKEKETEAILKAEVLCKTEVMSRAELASGPEYSPPLQYETAVKPTILSMPDMPPSGKVTKSQAPLAFEEPHGETSRSEFSFESNECSTLEDSATSEAFPGPEEFSNMEFSMAAALTESRYLPEEYLGGQEAAASPLEAERYVQENEPSLEPLRILASLQDPFAEVEAKLARLSSTVAMSDSSQTVVPQIPKQPSSADLLEPSDTKSEADVAVADNVVLGTEPDVNLRVAEEVVSEAETGVWMESEAQVAHVAQVSEEAQPQPLLAMVSVRRESVGVEVAVLTEEELQPVDQQQVLARLQLLEQQVVGGEQAKNKDLREKHKRRKRYADERKKQLVAALQNSDEDGGDWVLLNVYDSIQEEVRAKSKLLEKMQRKLRAAEVEIKDLQSEFQLEKIDYLATIRRQERDSMLFQQLLEQVQPLIRRDCNYSNLEKIRRESSWDEDNGFWKIPDPIILKTSLPVVPTGTQNKPARKTSAVDSGEPHMQEEDRYKLMLSRSDSENIASNYFRSKRASQILSTDPMKSLTYHNSPPGLNSSLSNNSALPPTQTPEMPQPRPFRLESLDIPFSKAKRKKSKNSFGGEPL
- binding (ATF4-His (aa 117-232)): binds

B2: KIF17, endogenous in mouse DRG (protein, UniProt Q99PW8 1-1038)
chain: B1 chain
- binding [2]: binds
- binding [3]: binds

Results, then the molecule that gave them:

- binding [1]: binds weakly
Molecule: KIF3A, endogenous in mouse DRG (from UniProt P28741 1-701)

- binding [1]: binds weakly
Molecule: KIF5A, endogenous in mouse DRG (from UniProt P33175 1-1027)

- binding [1]: binds
Molecule: transient receptor potential cation channel subfamily M member-3 (TRPM3), endogenous in mouse DRG (from UniProt J9SQF3 1-1732)

- binding [2]: binds weakly
B3: KIFC2, endogenous in mouse DRG (protein, UniProt O08672 1-792)
chain: MYAFYSLLIYIFYSLFRRDGGAAAVSDPGDPTQKSGGQPRGRRRPDQFTSELWSELNSLAGCSESEDGQKGAEGGAAEVSLEEALMRLAEFLSVQLGAEESCGTTPDLGKPGEVPPLLTVTSQLLALLAWTRSPRGRQALLQGTQPTCPVQPSTLDGSLSQEESSSQPTPILDEVPRDETQEHQPLQLEEEQRVWQRLEQLILGQLEELRQQLEQQEEELSRLRLGVGVTDSEKRVQHLTLENEALKQSLSLTRDLLLHWGPGPLPRLSQEEAGALLELQGQLQEAQDTTEALRVQLGAQELQLQGLRGALRQLQQETEQNCRQELQQVHGQLAGLRARMASLRQGCGDLRGLVSTFTQSCQGSLSEAQGQVSWALGALSAGKAKTQLSEGNQAPPTGCSGRLLELKGNIRVLCRLRPAEGQPSSLVSVEPGQGGTITTCYRGRQHCFRLDWVFPQDASQEEVFRQLEPAVLSCLQGYSVCIFTYGQTGTGKTYSMEGPPEDPGIAPRALQLLFREMGTGGHHHVTLSMVEIYNEAVRDLLATGPPERLVVRQGPAGQGGIQVAGLTHWDVPNLETLHQMLSLGRSNRATAATVMNQHSSRSHALVTLTLRAASPPRPQGITGTLHLVDLAGSERVWKAGVASPVQRDPNGARRLREAQAINRSLLALGGVMAALRARRPHVPFRDSQLTRLLQPALWAGTTAVLLLQISTRAEDLGETICSLKFAERVGQVELGPARRRRAPRSGTPSSLSTDTPLTGTSCTPTPSPGSPPSTSPNSCSGLTLEPPGDPPP

- binding [2]: binds weakly
B4: KIF3B, endogenous in mouse DRG (protein, UniProt Q61771 1-747)
chain: MSKLKSSESVRVVVRCRPMNGKEKAASYDKVVDVDVKLGQVSVKNPKGTSHEMPKTFTFDAVYDWNAKQFELYDETFRPLVDSVLQGFNGTIFAYGQTGTGKTYTMEGVRGDPEKRGVIPNSFDHIFTHISRSQNQQYLVRASYLEIYQEEIRDLLSKDQTKRLELKERPDTGVYVKDLSSFVTKSVKEIEHVMNVGNQNRSVGATNMNEHSSRSHAIFVITIECSEVGLDGENHIRVGKLNLVDLAGSERQAKTGAQGERLKEATKINLSLSALGNVISALVDGKSTHIPYRDSKLTRLLQDSLGGNAKTVMVANVGPASYNVEETLTTLRYANRAKNIKNKPRVNEDPKDALLREFQEEIARLKAQLEKRSIGRRKRREKRREGGGSGGGGEEEEEEGEEGEEDGDDKDDYWREQQEKLEIEKRAIVEDHSLVAEEKMRLLKEKEKKMEDLRREKDAAEMLGAKIKAMESKLLVGGKNIVDHTNEQQKILEQKRQEIAEQKRREREIQQQMESRDEETLELKETYTSLQQEVDIKTKKLKKLFSKLQAVKAEIHDLQEEHIKERQELEQTQNELTRELKLKHLIIENFIPLEEKNKIMNRSFFDDEEDHWKLHPITRLENQQMMKRPVSAVGYKRPLSQHARMSMMIRPEPRYRAENIMLLELDMPSRTTRDYEGPAISPKVQAALDAALQDEDEIQVDASSFESTASRKPKARPKSGRKSGSSSSSSGNPASQFYPQSRGLVPK
